Results are given in words; binding and its absence hold for the method and conditions named. Some entries that bind do so weakly or less than the wild type.
Target: biotinylated human Exonuclease 1 (EXO1) (human) (UniProt Q9UQ84)
Experiment: pull-down

The chains behind the UniProt entries cited, without tags or fusion partners.
UniProt Q9UQ84: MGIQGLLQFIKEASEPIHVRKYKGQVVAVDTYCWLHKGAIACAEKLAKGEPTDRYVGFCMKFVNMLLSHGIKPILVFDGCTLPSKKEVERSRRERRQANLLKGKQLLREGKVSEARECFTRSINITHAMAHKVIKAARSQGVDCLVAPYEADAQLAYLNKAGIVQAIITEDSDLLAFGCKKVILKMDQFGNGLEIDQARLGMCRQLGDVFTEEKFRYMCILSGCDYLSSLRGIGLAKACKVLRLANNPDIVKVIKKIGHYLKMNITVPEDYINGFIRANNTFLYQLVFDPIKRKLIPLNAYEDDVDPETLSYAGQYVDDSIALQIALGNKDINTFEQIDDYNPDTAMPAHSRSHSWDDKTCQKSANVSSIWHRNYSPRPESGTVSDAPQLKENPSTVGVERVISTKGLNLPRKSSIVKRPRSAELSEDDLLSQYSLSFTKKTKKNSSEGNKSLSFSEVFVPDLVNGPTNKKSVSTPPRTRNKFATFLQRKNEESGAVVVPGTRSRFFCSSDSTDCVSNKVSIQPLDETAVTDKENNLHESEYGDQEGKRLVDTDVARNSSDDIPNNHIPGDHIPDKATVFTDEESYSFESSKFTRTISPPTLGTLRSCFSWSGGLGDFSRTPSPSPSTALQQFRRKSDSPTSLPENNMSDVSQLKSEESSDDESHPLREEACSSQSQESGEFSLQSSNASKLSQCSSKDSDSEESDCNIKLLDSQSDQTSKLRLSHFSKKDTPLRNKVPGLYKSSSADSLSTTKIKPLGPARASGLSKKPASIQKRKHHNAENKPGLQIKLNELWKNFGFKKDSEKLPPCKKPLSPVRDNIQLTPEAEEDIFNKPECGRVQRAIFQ
UniProt P54132: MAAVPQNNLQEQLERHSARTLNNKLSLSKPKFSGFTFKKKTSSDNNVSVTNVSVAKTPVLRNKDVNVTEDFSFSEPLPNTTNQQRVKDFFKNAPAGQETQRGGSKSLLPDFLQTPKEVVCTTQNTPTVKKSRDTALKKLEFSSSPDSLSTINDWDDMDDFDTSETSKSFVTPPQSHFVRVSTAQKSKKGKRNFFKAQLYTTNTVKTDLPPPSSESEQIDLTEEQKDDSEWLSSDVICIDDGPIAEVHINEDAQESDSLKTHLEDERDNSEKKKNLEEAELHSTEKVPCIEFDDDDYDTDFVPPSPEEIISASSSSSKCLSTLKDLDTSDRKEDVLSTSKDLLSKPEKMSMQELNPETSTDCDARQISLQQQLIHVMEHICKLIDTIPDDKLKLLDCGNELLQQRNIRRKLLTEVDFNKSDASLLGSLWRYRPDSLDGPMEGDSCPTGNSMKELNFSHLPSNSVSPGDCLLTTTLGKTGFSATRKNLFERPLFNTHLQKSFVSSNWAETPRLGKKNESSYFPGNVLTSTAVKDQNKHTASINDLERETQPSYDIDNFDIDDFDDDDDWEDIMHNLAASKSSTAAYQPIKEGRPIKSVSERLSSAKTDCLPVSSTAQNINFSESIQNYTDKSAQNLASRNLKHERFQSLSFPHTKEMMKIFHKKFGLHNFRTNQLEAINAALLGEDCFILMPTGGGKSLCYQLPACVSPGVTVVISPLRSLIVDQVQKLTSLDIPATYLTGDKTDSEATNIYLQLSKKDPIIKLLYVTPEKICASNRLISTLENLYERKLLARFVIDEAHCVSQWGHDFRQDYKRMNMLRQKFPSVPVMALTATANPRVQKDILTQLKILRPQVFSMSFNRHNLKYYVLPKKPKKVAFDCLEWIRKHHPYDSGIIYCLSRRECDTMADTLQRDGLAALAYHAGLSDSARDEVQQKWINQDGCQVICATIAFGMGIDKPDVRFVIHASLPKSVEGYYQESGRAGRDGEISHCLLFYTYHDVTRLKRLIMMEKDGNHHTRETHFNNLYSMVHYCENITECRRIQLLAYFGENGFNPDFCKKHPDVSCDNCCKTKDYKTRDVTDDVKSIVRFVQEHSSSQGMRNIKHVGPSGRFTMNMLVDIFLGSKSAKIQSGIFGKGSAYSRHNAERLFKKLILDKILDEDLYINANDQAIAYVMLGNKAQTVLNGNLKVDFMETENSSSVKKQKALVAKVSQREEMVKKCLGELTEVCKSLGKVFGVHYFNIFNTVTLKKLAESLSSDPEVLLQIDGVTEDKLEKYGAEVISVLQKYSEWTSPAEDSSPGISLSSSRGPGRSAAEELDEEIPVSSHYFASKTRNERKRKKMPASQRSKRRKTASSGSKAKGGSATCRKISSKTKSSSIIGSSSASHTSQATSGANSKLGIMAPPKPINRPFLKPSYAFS

“FLAG-BLM (Bloom's Syndrome helicase) (from UniProt P54132 1-1417) (enzyme)” was tested, and the binding was “binds”.

From paper doi:10.1101/517771
